# Experimental data: publication PMC3875777
# By UniProt entry, the sequences of proteins in these tests, tags left out. Where a name states a change or a piece, a line headed by the entry shows the natural chain unless it says otherwise.
# UniProt Q09472, whole entry: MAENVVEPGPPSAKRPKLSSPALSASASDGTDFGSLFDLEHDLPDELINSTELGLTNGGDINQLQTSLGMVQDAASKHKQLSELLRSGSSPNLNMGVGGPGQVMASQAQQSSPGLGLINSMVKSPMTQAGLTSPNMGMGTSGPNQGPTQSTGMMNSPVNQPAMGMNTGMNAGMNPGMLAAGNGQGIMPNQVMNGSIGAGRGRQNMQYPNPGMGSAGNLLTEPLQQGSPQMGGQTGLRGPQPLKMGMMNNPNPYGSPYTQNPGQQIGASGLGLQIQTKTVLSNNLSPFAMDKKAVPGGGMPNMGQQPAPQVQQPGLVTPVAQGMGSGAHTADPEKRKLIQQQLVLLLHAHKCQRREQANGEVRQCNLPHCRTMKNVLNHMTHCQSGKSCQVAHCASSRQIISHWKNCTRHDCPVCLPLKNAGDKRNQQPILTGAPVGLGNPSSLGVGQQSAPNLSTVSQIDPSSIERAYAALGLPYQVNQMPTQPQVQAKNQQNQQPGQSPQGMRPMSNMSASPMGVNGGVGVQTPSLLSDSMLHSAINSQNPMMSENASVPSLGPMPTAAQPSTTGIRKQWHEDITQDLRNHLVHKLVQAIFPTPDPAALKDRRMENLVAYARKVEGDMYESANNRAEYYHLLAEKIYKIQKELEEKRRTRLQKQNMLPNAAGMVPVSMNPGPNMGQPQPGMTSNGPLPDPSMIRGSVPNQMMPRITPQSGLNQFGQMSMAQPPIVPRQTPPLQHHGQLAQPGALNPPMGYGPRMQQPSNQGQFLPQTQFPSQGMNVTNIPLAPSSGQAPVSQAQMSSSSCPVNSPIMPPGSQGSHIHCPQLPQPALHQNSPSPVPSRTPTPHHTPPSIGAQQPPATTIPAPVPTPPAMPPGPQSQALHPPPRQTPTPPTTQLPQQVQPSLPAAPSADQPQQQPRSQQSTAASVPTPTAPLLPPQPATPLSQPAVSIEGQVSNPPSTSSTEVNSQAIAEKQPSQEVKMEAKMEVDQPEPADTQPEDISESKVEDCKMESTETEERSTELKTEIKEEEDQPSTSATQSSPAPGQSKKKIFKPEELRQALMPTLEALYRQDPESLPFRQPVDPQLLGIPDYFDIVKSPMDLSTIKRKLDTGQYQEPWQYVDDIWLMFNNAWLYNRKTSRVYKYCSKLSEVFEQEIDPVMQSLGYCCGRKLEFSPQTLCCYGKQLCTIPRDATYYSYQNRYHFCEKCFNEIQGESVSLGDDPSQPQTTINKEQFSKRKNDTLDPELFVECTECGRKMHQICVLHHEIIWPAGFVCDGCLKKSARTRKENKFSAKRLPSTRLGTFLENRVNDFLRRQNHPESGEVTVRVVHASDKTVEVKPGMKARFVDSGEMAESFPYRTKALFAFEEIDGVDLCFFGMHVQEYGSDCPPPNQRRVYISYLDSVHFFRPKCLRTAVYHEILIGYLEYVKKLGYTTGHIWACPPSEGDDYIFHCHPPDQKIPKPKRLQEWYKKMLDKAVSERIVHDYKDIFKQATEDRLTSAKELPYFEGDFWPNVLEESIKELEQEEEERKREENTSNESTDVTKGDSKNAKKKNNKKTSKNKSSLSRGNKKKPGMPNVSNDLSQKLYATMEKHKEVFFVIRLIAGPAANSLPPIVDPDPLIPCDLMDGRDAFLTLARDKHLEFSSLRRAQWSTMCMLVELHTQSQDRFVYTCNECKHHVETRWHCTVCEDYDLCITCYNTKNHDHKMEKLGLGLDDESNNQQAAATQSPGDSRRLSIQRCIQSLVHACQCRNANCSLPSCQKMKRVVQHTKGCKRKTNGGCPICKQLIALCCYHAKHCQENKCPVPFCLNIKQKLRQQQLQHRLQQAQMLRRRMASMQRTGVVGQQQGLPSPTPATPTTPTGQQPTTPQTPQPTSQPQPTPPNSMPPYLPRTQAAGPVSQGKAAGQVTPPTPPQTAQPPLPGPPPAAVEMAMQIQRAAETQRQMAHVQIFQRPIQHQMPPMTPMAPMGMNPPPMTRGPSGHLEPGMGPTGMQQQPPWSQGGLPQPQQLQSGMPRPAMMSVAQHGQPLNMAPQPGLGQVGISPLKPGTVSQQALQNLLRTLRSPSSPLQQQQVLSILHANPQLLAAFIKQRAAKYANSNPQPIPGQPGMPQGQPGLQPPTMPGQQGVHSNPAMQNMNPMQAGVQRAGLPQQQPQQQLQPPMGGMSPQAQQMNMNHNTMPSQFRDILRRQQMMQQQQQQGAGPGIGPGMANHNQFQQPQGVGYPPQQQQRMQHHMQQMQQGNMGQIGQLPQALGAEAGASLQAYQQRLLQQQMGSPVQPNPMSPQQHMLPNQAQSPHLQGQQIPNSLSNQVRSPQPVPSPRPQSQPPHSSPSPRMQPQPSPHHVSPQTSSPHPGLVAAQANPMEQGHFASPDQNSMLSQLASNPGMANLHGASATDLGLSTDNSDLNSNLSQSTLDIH
# UniProt O43364: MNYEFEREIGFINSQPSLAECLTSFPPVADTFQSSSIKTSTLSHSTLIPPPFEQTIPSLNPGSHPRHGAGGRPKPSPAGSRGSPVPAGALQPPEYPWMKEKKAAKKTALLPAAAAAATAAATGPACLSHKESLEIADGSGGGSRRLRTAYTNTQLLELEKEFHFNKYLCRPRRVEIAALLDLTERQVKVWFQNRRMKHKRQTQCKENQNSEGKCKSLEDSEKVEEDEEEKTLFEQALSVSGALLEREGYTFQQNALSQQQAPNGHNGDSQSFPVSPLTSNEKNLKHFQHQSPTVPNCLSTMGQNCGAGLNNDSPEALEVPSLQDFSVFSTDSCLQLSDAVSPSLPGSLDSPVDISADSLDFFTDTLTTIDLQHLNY
# UniProt P20226, whole entry: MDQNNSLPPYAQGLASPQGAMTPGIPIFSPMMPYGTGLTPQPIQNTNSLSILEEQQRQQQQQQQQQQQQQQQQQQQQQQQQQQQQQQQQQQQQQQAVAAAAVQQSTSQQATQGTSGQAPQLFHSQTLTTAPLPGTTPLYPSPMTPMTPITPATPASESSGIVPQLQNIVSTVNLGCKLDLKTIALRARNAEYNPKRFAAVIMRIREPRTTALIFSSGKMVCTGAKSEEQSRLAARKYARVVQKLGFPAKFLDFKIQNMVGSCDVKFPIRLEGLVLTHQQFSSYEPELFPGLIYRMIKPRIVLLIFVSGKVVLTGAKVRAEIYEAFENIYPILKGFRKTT
# How the values were obtained:
# [1] = molecular target: p300-3F (Flag-tagged p300) (UniProt Q09472); test: pull-down; conditions: Pull-down: 100-250 pmole probe on M-280 streptavidin Dynabeads, 100-250 ug nuclear extract, 2.5 ug salmon sperm DNA, 1 h room temperature, washes with 0.5% NP-40, protein in a lysate after overexpression, protein details: Flag (3F), label: 5'-biotin
# [2] = molecular target: HOXA2-Flag (Homo sapiens) (UniProt O43364); test: pull-down; conditions: HOXA2-expressing HK1 extract, Pull-down: 100-250 pmole probe on M-280 streptavidin Dynabeads, 100-250 ug nuclear extract, 2.5 ug salmon sperm DNA, 1 h room temperature, washes with 0.5% NP-40, protein in a lysate after overexpression, protein details: Flag, label: 5'-biotin
# recombinant His-HOXA2 = recombinant His-HOXA2 (UniProt O43364); test: EMSA; conditions: binding dropped dramatically; EMSA: LightShift kit, 20 fmol probe, 37 C 20 min, 6% gel in 1X TBE; salt and pH not given; recombinant protein; protein details: His; label: 5'-biotin
# recombinant His-TBP = recombinant His-TBP (UniProt P20226); test: EMSA; conditions: binding dropped dramatically; EMSA: LightShift kit, 20 fmol probe, 37 C 20 min, 6% gel in 1X TBE; salt and pH not given; recombinant protein; protein details: His; label: 5'-biotin
# TBP (endogenous) = TBP (endogenous) (UniProt P20226); test: pull-down; conditions: Pull-down: 100-250 pmole probe on M-280 streptavidin Dynabeads, 100-250 ug nuclear extract, 2.5 ug salmon sperm DNA, 1 h room temperature, washes with 0.5% NP-40, protein in an extract, label: 5'-biotin
sequence,measurement,setting,value
CCCCCACGTACTCCGGG (double strand) [HOXA2 p300-1 WT],binding signal,[1]; reference,1 fold of WT
"AAAAATAAAATAAAATAAATAAATA (double strand) [MMP9 control (putative HOXA2-response element, -1421)]",binding result,[2]; 'little or no' binding,no binding
CCCCCAAAAAAAAAGGG (double strand) [HOXA2 p300-1 MT],binding result,[1],no binding
GAGCGCCTCCGGGGGGCCCCCACAA (double strand) [MMP9 TATA MT],binding result,recombinant His-HOXA2,binds more weakly
same,binding result,recombinant His-TBP,binds more weakly
GGGAGTGGGGAGTGGGGAGTGAAA (double strand) [3 copies of p300 consensus (P)],binding result,[1],binds
CCCCCACGTACTCCGGG (double strand) [HOXA2 p300-1 ME],binding signal,"[1]; CpG methylated, 5-methylcytosine at CpG: strand 1 C7 and C14, strand 2 C3 and C10",0.6 fold of WT
GAGCGCCTCCTTAAAGCCCCCACAA (double strand) [MMP9 TATA WT],binding result,TBP (endogenous); HOXA2-expressing HK1 extract,binds more weakly
same,binding result,TBP (endogenous); vector HK1 extract,binds
same,binding result,[2],binds

# For at least one entry, the source does not settle the construct or the ends of the probe. For some of these results: Weaker means in comparison with the reference protein, sequence or condition of that experiment. For some of these results: Where cells or extracts were used, other partners may take part. For some of these results: Negatives hold for the conditions tested. For some of these results: Whether high values mean tight binding is not given here for every scale.
